{"source": "the supplement of paper PMC6411743", "target": "T1, UniProt Q8TBA6 and related entries", "T1 sequence (whole entry)": "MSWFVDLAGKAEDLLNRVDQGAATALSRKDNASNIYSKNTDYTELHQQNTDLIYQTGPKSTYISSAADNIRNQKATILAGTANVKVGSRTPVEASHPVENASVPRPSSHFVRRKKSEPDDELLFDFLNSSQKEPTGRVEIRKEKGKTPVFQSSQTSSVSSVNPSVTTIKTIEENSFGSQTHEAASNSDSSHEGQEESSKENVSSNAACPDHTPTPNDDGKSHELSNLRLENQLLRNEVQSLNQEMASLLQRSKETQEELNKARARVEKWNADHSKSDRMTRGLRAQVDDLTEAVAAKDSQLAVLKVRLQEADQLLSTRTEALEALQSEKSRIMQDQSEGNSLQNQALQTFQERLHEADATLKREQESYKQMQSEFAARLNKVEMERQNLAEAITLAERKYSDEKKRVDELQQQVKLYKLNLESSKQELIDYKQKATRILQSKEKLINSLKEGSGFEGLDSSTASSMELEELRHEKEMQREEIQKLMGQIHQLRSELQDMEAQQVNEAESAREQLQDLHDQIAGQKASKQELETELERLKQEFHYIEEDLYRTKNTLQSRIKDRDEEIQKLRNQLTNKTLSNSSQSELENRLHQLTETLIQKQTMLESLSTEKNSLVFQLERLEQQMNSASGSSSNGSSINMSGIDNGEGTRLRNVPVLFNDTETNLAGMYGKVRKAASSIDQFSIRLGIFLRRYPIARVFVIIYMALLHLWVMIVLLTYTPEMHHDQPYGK", "test": "NP40-soluble protein abundance relative to vehicle (solubility fold change) (ratio); higher = more soluble protein in presence of GTP", "description": "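Solubility proteome profiling in Jurkat crude lysate. Lysate was treated with Mg-GTP (0.1-10 mM) for 10 min at room temperature and 3 min at 37 °C, then solubilised with 0.8% NP40 and benzonase, followed by ultracentrifugation. Proteins were quantified by TMT10 LC-MS/MS; the value is the NP40-soluble abundance relative to the NP40-processed vehicle, from 3 independent experiments.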", "note": "± gives the standard deviation of the averaged measurements. The list shows a part of the results."}
{"compound": "Nc1nc2c(ncn2[C@@H]2O[C@H](COP(=O)(O)OP(=O)(O)OP(=O)(O)O)[C@@H](O)[C@H]2O)c(=O)[nH]1", "note": "[guanosine triphosphate]", "values": [{"measurement": "NP40-soluble protein abundance", "setting": "concentration: 0.1mM", "result": "0.947 ± 0.018"}, {"measurement": "NP40-soluble protein abundance", "setting": "concentration: 0.5mM", "result": "0.964 ± 0.037"}, {"measurement": "NP40-soluble protein abundance", "setting": "concentration: 1mM", "result": "0.961 ± 0.034"}, {"measurement": "NP40-soluble protein abundance", "setting": "concentration: 2mM", "result": "0.942 ± 0.05"}, {"measurement": "NP40-soluble protein abundance", "setting": "concentration: 4mM", "result": "0.926 ± 0.053"}, {"measurement": "NP40-soluble protein abundance", "setting": "concentration: 6mM", "result": "0.948 ± 0.051"}, {"measurement": "NP40-soluble protein abundance", "setting": "concentration: 8mM", "result": "0.944 ± 0.03"}, {"measurement": "NP40-soluble protein abundance", "setting": "concentration: 10mM", "result": "0.978 ± 0.055"}]}
